Experimental data taken from PMC7067772, “Digenic inheritance of mutations in EPHA2 and SLC26A4 in Pendred syndrome” (Nature Communications, 2020).
These are yes or no findings as the source states them, for the method shown. Binding seen in cells or lysates may run through a third protein. These calls come from enrichment with a bait or labelling near it, and not all partners need be listed.

By UniProt entry, the sequences of proteins in these tests, tags left out. Residues count along the entry.
UniProt Q03145, residues 26-977: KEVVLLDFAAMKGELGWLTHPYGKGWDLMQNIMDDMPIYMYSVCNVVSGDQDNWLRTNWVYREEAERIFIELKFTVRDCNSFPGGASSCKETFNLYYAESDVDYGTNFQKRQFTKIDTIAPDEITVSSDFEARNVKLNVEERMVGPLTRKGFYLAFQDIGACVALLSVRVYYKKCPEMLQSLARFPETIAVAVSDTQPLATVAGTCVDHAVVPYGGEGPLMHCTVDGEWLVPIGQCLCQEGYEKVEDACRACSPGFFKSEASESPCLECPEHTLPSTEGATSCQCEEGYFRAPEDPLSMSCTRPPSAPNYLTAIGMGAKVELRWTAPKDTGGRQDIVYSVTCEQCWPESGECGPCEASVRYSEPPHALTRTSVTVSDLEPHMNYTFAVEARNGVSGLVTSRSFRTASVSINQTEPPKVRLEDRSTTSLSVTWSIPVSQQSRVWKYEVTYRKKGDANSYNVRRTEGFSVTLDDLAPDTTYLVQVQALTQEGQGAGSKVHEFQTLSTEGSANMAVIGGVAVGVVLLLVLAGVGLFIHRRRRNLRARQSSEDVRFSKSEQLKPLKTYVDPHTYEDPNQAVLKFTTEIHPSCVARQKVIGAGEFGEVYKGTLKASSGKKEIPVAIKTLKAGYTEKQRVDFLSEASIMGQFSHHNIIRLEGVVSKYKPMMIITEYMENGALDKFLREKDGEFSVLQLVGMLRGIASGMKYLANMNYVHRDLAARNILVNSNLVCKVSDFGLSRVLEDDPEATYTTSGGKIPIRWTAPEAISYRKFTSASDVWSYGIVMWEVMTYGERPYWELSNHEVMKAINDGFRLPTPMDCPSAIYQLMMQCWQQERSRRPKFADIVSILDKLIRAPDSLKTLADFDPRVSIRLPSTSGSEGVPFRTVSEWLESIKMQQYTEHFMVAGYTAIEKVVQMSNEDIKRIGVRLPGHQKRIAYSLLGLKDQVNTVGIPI

Target: EphA2 (endogenous, mouse tissues) (mouse (endogenous in kidney, thyroid, inner ear)) (UniProt Q03145)
Test: affinity purification with mass spectrometry; anti-EphA2 antibody immunoprecipitate from adult wild type C57BL/6 mouse kidney lysate against control IgG; in-gel digestion, LC-MS/MS, label free quantification

B1: Slc26a4 (pendrin) (endogenous, mouse tissues) (protein, UniProt Q9R155 1-780)
chain: MAARGGRSEPPQLAEYSCSYTVSRPVYSELAFQQQRERRLPERRTLRDSLARSCSCSRKRAFGVVKTLLPILDWLPKYRVKEWLLSDIISGVSTGLVGTLQGMAYALLAAVPVQFGLYSAFFPILTYFVFGTSRHISVGPFPVVSLMVGSVVLSMAPDDHFLVPSGNGSALNSTTLDTGTRDAARVLLASTLTLLVGIIQLVFGGLQIGFIVRYLADPLVGGFTTAAAFQVLVSQLKIVLNVSTKNYNGILSIIYTLIEIFQNIGDTNIADFIAGLLTIIVCMAVKELNDRFKHRIPVPIPIEVIVTIIATAISYGANLEKNYNAGIVKSIPSGFLPPVLPSVGLFSDMLAASFSIAVVAYAIAVSVGKVYATKHDYVIDGNQEFIAFGISNVFSGFFSCFVATTALSRTAVQESTGGKTQVAGLISAVIVMVAIVALGRLLEPLQKSVLAAVVIANLKGMFMQVCDVPRLWKQNKTDAVIWVFTCIMSIILGLDLGLLAGLLFALLTVVLRVQFPSWNGLGSVPSTDIYKSITHYKNLEEPEGVKILRFSSPIFYGNVDGFKKCINSTVGFDAIRVYNKRLKALRRIQKLIKKGQLRATKNGIISDIGSSNNAFEPDEDVEEPEELNIPTKEIEIQVDWNSELPVKVNVPKVPIHSLVLDCGAVSFLDVVGVRSLRMIVKEFQRIDVNVYFALLQDDVLEKMEQCGFFDDNIRKDRFFLTVHDAILHLQNQVKSREGQDSLLETVARIRDCKDPLDLMEAEMNAEELDVQDEAMRRLAS
Question: B1 was tested. Which binding did it give?
Answer: Its binding is “binds”.
